No constants are given. Whether binding was seen depends on the method and setting.
Target: F104A lysin (monomeric mutant of red abalone sperm lysin) (Haliotis rufescens (red abalone)) (UniProt P04552)
Experiment: NMR relaxation

B1: F104A lysin (monomeric mutant of red abalone sperm lysin) (natural protein)
chain: RSWHYVEPKFLNKAFEVALKVQIIAGFDRGLVKWLRVHGRTLSTVQKKALYFVNRRYMQTHWANYMLWINKKIDALGRTPVVGDYTRLGAEIGRRIDMAYFYDALKDKNMIPKYLPYMEEINRMRPADVPVKYMGK
binding: no binding (tested: ∼150-450 μM)

Reference: doi:10.1101/160580 (bioRxiv, 2017)
